Results taken from US20110021746A1 (published 2011).
These are yes or no findings as the source states them, for the method shown. Some binding calls cover weakened binding; strength is not graded here.

Protein sequences, listed by entry. Tags and fused reporters are not part of them. Lines headed by an entry give the natural chain unless they say otherwise; changes in a name come on top. Chains listed by the source or under a name are the forms on record and can include a tag or linker. Residues count along the entry.
UniProt P01375, residues 77-233: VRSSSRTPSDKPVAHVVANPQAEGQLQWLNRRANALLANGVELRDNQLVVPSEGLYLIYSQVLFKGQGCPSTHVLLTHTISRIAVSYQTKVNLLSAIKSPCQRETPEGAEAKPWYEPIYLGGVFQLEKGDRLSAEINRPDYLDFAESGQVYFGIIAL
VEGF (P15692, form named): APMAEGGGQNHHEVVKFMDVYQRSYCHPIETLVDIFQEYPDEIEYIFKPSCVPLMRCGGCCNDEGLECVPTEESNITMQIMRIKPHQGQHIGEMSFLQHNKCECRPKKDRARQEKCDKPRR
UniProt P09429: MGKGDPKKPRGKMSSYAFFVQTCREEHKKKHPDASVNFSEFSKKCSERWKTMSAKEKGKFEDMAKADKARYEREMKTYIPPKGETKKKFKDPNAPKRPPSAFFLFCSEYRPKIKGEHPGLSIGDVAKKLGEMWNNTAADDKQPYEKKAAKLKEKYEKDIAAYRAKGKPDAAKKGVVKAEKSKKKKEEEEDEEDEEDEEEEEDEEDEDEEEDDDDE

Assays:
[1] = target: T1, TNF-α (UniProt P01375 77-233, biotinylated); test: phage ELISA
T1 construct: also called TNF-alpha; biotintylated TNF-α soluble protein (R&D Systems)

[2] = target: T1, TNF-α; test: ELISA, soluble His-tagged protein
[3] = target: T1, TNF-α; test: phage display selection and phage ELISA
[4] = target: VEGF (UniProt P15692); test: phage ELISA
[5] = target: HMGB1 (UniProt P09429); test: phage ELISA
[6] = target: HMGB1 (UniProt P09429); test: competition: biotinylated HMGB1 pre-incubated with R2F8, binding to immobilized RAGE

| Binder | binding [1] | binding [2] | binding [3] | binding [4] | further results |
| --- | --- | --- | --- | --- | --- |
| TNF-α binder R41A6 (designed binder, 14FN3 variant; for the Octet expressed from pET-20b with pelB signal and C-terminal hexahistidine tag; also called TNF A6) NVSPPRRARVTDATETTITISWEHSEDDCYSYIYYFQVDAVPANGQTPIQRTISGYETYYTITGLQPGTDYKIYLYTLNSAGFCPPYSKPVVIDAST | binds | binds | binds |  |  |
| TNF-α binder R42C10 (designed binder) NVSPPRRARVTDATETTITISWYHHEDDCYYHFYYFQVDAVPANGQTPIQRTILHGTYTSYTITGLQPGTDYKIYLYTLNASGFCSHSYKPVVIDAST | binds | binds | binds |  |  |
| TNF-α binder R4C5 (designed binder) NVSPPRRARVTDATETTITISWNSSYCHFYGFQVDAVPANGQTPIQRTISDYEYSYTITGLQPGTDYKIYLYTLNASCYGYHYYKPVVIDAST | binds | binds | binds |  |  |
| TNF-α binder R4A8 (designed binder) NVSPPRRARVTDATETTITISWYPSEDYCGSSIYGFQVDAVPANGQTPIQRTIHGNETSYTITGLQPGTDYKIYLYTLNSAGFCPPYSKPVVIDAST | binds |  | binds |  |  |
| TNF-α binder A4A9 (designed binder) NVSPPRRARVTDATETTITISWYPYYDDCGYYISYFQVDAVPANGQTPIQRTIPDSYSSYTITGLQPGTDYKIYLYTLNDADDGHPYSKPVVIDAST | binds |  | binds |  |  |
| TNF-α binder R3A10 (designed binder) NVSPPRRARVTDATETTITISWYPYYYYCGYHYSYFQVDAVPANGQTPIQRTIYGYYTYYTITGLQPGTDYKIYLYTLNSSDYCYYSYYPVVIDAST | binds |  | binds |  |  |
| R1D4 anti-VEGF (designed binder) NVSPPRRARVTDATETTITIPWEVAGGPIISFQVDAVPANGQTPIQRTITPDATGYTITGLQPGTDYKIYLYTLNDNARSSPVVIDAST |  |  |  | binds |  |
| R1F1 anti-VEGF (designed binder) NVSPPRRARVTDATETTITIPWALAGGPIISFQVDAVPANGQTPIQRTITPDIRGYTITGLQPGTDYKIYLYTLNDNARSSPVVIDAST |  |  |  | binds |  |
| R1G1 anti-VEGF (designed binder) NVSPPRRARVTDATETTITIRWAGSPGPVDSFQVDAVPANGQTPIQRTIQTSETGYTITGLQPGTDYKIYLYTLNDNARSSPVVIDAST |  |  |  | binds |  |
| R2F8 anti-HMGB1 (designed binder) NVSPPRRARVTDATETTITIRWARSASEIARFQVDAVPANGQTPIQRTIKRSANIYTITGLQPGTDYKIYLYTLNDNARSSPVVIDAST |  |  |  |  | binding [5]: binds; binding [6]: binds |
